In PubChem BioAssay AID2685 (National Center for Advancing Translational Sciences (NCATS), 2010):
Some of the results follow. These are further read-outs of the screen, such as a control signal, another cell line or another target. No call is given for them. Compounds called inactive in the main read-out are mostly missing here. The note in brackets gives the kind of curve behind each potency; many fits are weak.

Experiment: qHTS Assay for Lipid Storage Modulators in Drosophila S3 Cells;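 as to cell number change: cells counted by Cell Tracker Red CMTPX staining in the red channel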
Conditions: BODIPY lipid droplet fluorescence, 18-24 h; for cell number change: measured here: cell count max response, cells fed with added oleic acid
Outline: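 Laser-scanning cytometry quantifies lipid droplet accumulation (500–530 nm total intensity; droplet/cell object ratio) in oleic acid-fed (400 uM added) Drosophila S3 cells treated with a concentration series. 20 uM Triacsin C defined 100% inhibition.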

[1] = measured here: lipid fluorescence (Fed channel) AC50, cells fed with added oleic acid
[2] = measured here: cell number channel AC50, cells fed with added oleic acid

Row | Structure (SMILES) | cell number change [%] | AC50 [1] | AC50 [2]
1 | COC(=O)c1ccc(CSc2nc3sc(C)c(C)c3c(=O)[nH]2)cc1 | -23.8 |  | 
2 | CCOc1cc2[nH]c(=S)n(Cc3ccc(C(=O)O)cc3)c(=O)c2cc1OCC | -12.6 | 29.1 µM [falling, single point] | 
3 | CCCCCn1c(=O)[nH]c2cc(C(=O)NCc3ccc4c(c3)OCO4)ccc2c1=O | 18.4 | 5.17 µM [rising, full curve] | 
4 | Cc1cc(=O)oc2c3c(cc(OCC(=O)NCCCn4ccnc4)c12)OC(C)(C)CC3 | 16.9 | 3.26 µM [falling, full curve] | 
5 | Nc1ccc(SCC(=O)Nc2cccc([N+](=O)[O-])c2)cc1 | 6.65 | 6.51 µM [falling, partial curve, poor fit] | 6.51 µM [falling, partial curve, poor fit]
6 | Cc1ccc(S(=O)(=O)NC(CC(=O)O)c2ccco2)cc1 (stereo not drawn) | 0.424 | 1.46 µM [falling, partial curve] | 
7 | Cc1ccc(CN2CCN(/N=C/c3ccc(C)s3)CC2)c(C)c1 | 18.3 | 29.1 µM [falling, single point] | 0.00651 µM [falling, full curve, poor fit]
8 | Nc1nnc(-c2ccccc2Cl)s1 | 48.6 | 29.1 µM [rising, partial curve] | 9.2 µM [rising, partial curve]
9 | O/N=C(/CCc1ccccc1)c1ccc2c(c1)OCCO2 | -7.01 | 0.164 µM [falling, full curve, poor fit] | 
10 | Cc1nc(Nc2cccc(C(F)(F)F)c2)nc2c1C(=O)CC(C)C2 (stereo not drawn) | 107 |  | 20.6 µM [rising, single point]
11 | CC(=O)Nc1ccc(-c2csc(NC=C3C(=O)OC(C)(C)OC3=O)n2)cc1 | 45.2 | 25.9 µM [rising, partial curve, poor fit] | 14.6 µM [rising, partial curve, poor fit]
12 | CCOC(=O)Nc1ccc2c(c1)N(C(=O)N(C)C)c1ccccc1CC2 | 15.3 | 3.26 µM [rising, single point] | 
13 | CCn1cc(S(=O)(=O)Nc2ccc(Cl)cc2F)cn1 | 18.4 | 0.146 µM [falling, full curve, poor fit] | 
14 | O=c1[nH]c2cc(C(F)(F)F)ccc2n1-c1cc(C(F)(F)F)ccc1O | -47.2 | 18.4 µM [falling, partial curve] | 18.4 µM [falling, partial curve]
15 | Cc1cccc(N2CCN(C(=O)c3cn(C)c(=O)c4c3c3ccccc3n4C)CC2)c1C | -58.9 |  | 29.1 µM [falling, single point]
16 | COc1ccc(C(=O)NCc2nnc(SCC(=O)N3CCOCC3)o2)cc1 | -32.7 | 29.1 µM [falling, single point] | 
17 | CCC1SC2=NC(C)=C(C(=O)OCCOC)C(/C=C/c3ccccc3OC)N2C1=O (stereo not drawn) | -1.13 | 1.03 µM [falling, full curve, poor fit] | 
18 | COC(=O)c1sc2cc([N+](=O)[O-])cc(SCC(C)C)c2c1N | -67.6 | 3.26 µM [falling, full curve] | 11.6 µM [falling, partial curve]
19 | CC(C)(C)c1ccc(/C=N/OCC(=O)NCc2ccc(F)cc2)cc1 | -64.6 | 9.2 µM [falling, partial curve] | 11.6 µM [falling, partial curve]

Row | Structure (SMILES) | cell number change [%] | AC50 [1] | AC50 [2]
20 | C=CCNC(=O)Nc1ccc(F)cc1F |  | 6.51 µM [falling, partial curve] | 
21 | CC(=O)Nc1ccc(NC(=O)C(C)OC(=O)c2ccc(N(C)C)cc2)cc1 (stereo not drawn) | 21 | 6.51 µM [falling, single point] | 0.82 µM [rising, full curve]
22 | O=C(NCCCN1CCOCC1)c1cc(S(=O)(=O)N2CCN(c3ccccc3)CC2)ccc1Cl | 27.7 |  | 
23 | C/C(CC(=O)Nc1cccc2c1CCCC2)=N\NC=O | -10.7 | 0.103 µM [falling, full curve] | 0.164 µM [falling, full curve]
24 | CC(C)=CC(=O)OCC(=O)Nc1ncc(Cl)c(C)c1Cl | 24.2 | 16.4 µM [rising, partial curve, poor fit] | 
25 | Cc1cccn2c(=O)c3cc(C#N)c(=O)n(-c4c(C)n(C)n(-c5ccccc5)c4=O)c3nc12 | 7.64 |  | 
26 | O=C(COc1ccc(Cl)cc1Cl)N(C1CCCCC1)C1CCS(=O)(=O)C1 (stereo not drawn) | -38.3 |  | 9.2 µM [falling, partial curve]
27 | O=C(Nc1ccc2c(c1)OCCO2)c1coc2ccccc2c1=O | 15.3 | 29.1 µM [rising, single point] | 
28 | Cc1[nH]c2ccc(C(=O)N3CCN(C)CC3)cc2c1C | 18.3 |  | 
29 | COc1ccc(C2=CSC3=NCCN23)cc1F | 33.1 |  | 9.2 µM [rising, partial curve]
30 | Cc1cccc(N(C(=O)Cc2cccs2)C(C(=O)NCc2ccco2)c2ccncc2)c1 (stereo not drawn) | -18.9 | 14.6 µM [falling, partial curve] | 
31 | COc1ccc(C(=O)CC(=O)c2ccccc2O)cc1 | -25.2 | 23.1 µM [falling, single point] | 
32 | CCNc1nc(NCC)n2c(SCC(=O)Nc3ccc(NC(C)=O)cc3)nnc2n1 | -21.3 | 3.26 µM [falling, single point] | 
33 | COc1ccc(-n2c(=O)c3c(C)c(C)sc3n(Cc3ccc(F)cc3)c2=O)c(OC)c1 | -12.3 | 2.91 µM [falling, partial curve] | 
34 | CC(=O)c1c(C)c(C)c2n1CCn1c(C)ccc1-2 | 11.3 | 0.461 µM [rising, full curve] | 
35 | CCOC(=O)c1ccccc1NC(=O)COC(=O)C(Cc1c[nH]c2ccccc12)NC(C)=O (stereo not drawn) | -1.39 |  | 
36 | O=C(OCCCCOC(=O)c1ccccc1)c1ccccc1 | 22.4 | 29.1 µM [rising, single point] | 
37 | Cc1c(C(=O)NCc2ccc(S(N)(=O)=O)cc2)oc2ccc(Cl)cc12 | -33.2 | 11.2 µM [falling, partial curve] | 3.98 µM [falling, full curve, poor fit]

As entered above.
AC50 [2] with Cc1c(C(=O)NCc2ccc(S(N)(=O)=O)cc2)oc2ccc(Cl)cc12 reads 3.98 µM [falling, full curve, poor fit]
cell number change [%] with O=C(NCCCN1CCOCC1)c1cc(S(=O)(=O)N2CCN(c3ccccc3)CC2)ccc1Cl reads 27.7
